# Laboratory results: article doi:10.1101/112466
# These are yes or no findings as the source states them, for the method shown. Binding seen in cells or lysates may run through a third protein. Some entries that bind do so weakly or less than the wild type.
# B1: leucine-rich repeat containing receptor LGR5 (receptor, UniProt O75473 22-907)
# chain: GSSPRSGVLLRGCPTHCHCEPDGRMLLRVDCSDLGLSELPSNLSVFTSYLDLSMNNISQLLPNPLPSLRFLEELRLAGNALTYIPKGAFTGLYSLKVLMLQNNQLRHVPTEALQNLRSLQSLRLDANHISYVPPSCFSGLHSLRHLWLDDNALTEIPVQAFRSLSALQAMTLALNKIHHIPDYAFGNLSSLVVLHLHNNRIHSLGKKCFDGLHSLETLDLNYNNLDEFPTAIRTLSNLKELGFHSNNIRSIPEKAFVGNPSLITIHFYDNPIQFVGRSAFQHLPELRTLTLNGASQITEFPDLTGTANLESLTLTGAQISSLPQTVCNQLPNLQVLDLSYNLLEDLPSFSVCQKLQKIDLRHNEIYEIKVDTFQQLLSLRSLNLAWNKIAIIHPNAFSTLPSLIKLDLSSNLLSSFPITGLHGLTHLKLTGNHALQSLISSENFPELKVIEMPYAYQCCAFGVCENAYKISNQWNKGDNSSMDDLHKKDAGMFQAQDERDLEDFLLDFEEDLKALHSVQCSPSPGPFKPCEHLLDGWLIRIGVWTIAVLALTCNALVTSTVFRSPLYISPIKLLIGVIAAVNMLTGVSSAVLAGVDAFTFGSFARHGAWWENGVGCHVIGFLSIFASESSVFLLTLAALERGFSVKYSAKFETKAPFSSLKVIILLCALLALTMAAVPLLGGSKYGASPLCLPLPFGEPSTMGYMVALILLNSLCFLMMTIAYTKLYCNLDKGDLENIWDCSMVKHIALLLFTNCILNCPVAFLSFSSLINLTFISPEVIKFILLVVVPLPACLNPLLYILFNPHFKEDLVSLRKQTYVWTRSKHPSLMSINSDDVEKQSCDSTQALVTFTSSSITYDLPPSSVPSPAYPVTESCHLSSVAFVPCL
# B2: FZD10 (receptor, UniProt Q9ULW2 21-581)
# chain: ISSMDMERPGDGKCQPIEIPMCKDIGYNMTRMPNLMGHENQREAAIQLHEFAPLVEYGCHGHLRFFLCSLYAPMCTEQVSTPIPACRVMCEQARLKCSPIMEQFNFKWPDSLDCRKLPNKNDPNYLCMEAPNNGSDEPTRGSGLFPPLFRPQRPHSAQEHPLKDGGPGRGGCDNPGKFHHVEKSASCAPLCTPGVDVYWSREDKRFAVVWLAIWAVLCFFSSAFTVLTFLIDPARFRYPERPIIFLSMCYCVYSVGYLIRLFAGAESIACDRDSGQLYVIQEGLESTGCTLVFLVLYYFGMASSLWWVVLTLTWFLAAGKKWGHEAIEANSSYFHLAAWAIPAVKTILILVMRRVAGDELTGVCYVGSMDVNALTGFVLIPLACYLVIGTSFILSGFVALFHIRRVMKTGGENTDKLEKLMVRIGLFSVLYTVPATCVIACYFYERLNMDYWKILAAQHKCKMNNQTKTLDCLMAASIPAVEIFMVKIFMLLVVGITSGMWIWTSKTLQSWQQVCSRRLKKKSRRKPASVITSGGIYKKAQHPQKTHHGKYEIPAQSPTCV
# B3: CrlC (receptor, UniProt Q6UUW6 1-361)
# chain: MGIEESQICNPSDREFLSVDILNIVTSSLSLMGSALTIISYIWKKVRRHRIQKQQIQQQQQQIEKGGLLSSSITIGNGSSHYGGIGGGGGSGNGTGIGAIGGPHGTYKQPTSKLPLLIFMLSIADFFTSFFIIISQSYLINNSKSYSTPYSPDLKIHFSPCIILRAIIQFFFLSTFFWTTCISYYLFHQLSSPGEEKYLLAIFNVVSWGIPFAISMVITMTNSIVVNSDGWCEVAKPMELSLWFLPLFLCLLVCSIYYFRLRRLFRSKFEYRLQINDRLKQLDSTISRRLTLYIVVFVICWLPDVIQHFISFFSKCTFFPLLILQNILTPSQGFWNFWIYSYTNKIARFTPSNDENKRLLQ
# B4: CarB (receptor, UniProt P34907 1-375)
# chain: MTIMSDIIAQRTILLIADFSSIIGCSLVLIGFWRLKLLRNHITKIISLFCATSLFKDVISTIITLLYKPDQTESGFPCYLHAIVITFGSLACWLWTLMLSFSIYNLIVRREPEPERFEKFYFCLCYGLPLISTIVMLSTHIIQPVGGWCWIGDNYDGYRFGLFYGPFFFIWGTSAILVGLTSKYTYSVIRSSVSDNKDKHMTYQFKLINYIVVFLVCWVFAIVNRILNGLNQFPTVPNVLHTYFSVSHGFYASITFIYNNPLMWRYFGAKFLLIFSKFGLFVQAQQRLELNKNNNNPSPIMRSKNALDNGADSSVVELPCLSKADSLSLDAENNIETPKENENQNHHHHHHHHHHHNHYNNNNNNNNINNKNDMI
# B5: CCR6 (receptor, UniProt P51684 1-374)
# chain: MSGESMNFSDVFDSSEDYFVSVNTSYYSVDSEMLLCSLQEVRQFSRLFVPIAYSLICVFGLLGNILVVITFAFYKKARSMTDVYLLNMAIADILFVLTLPFWAVSHATGAWVFSNATCKLLKGIYAINFNCGMLLLTCISMDRYIAIVQATKSFRLRSRTLPRSKIICLVVWGLSVIISSSTFVFNQKYNTQGSDVCEPKYQTVSEPIRWKLLMLGLELLFGFFIPLMFMIFCYTFIVKTLVQAQNSKRHKAIRVIIAVVLVFLACQIPHNMVLLVTAANLGKMNRSCQSEKLIGYTKTVTEVLAFLHCCLNPVLYAFIGQKFRNYFLKILKDLWCVRRKYKSSGFSCAGRYSENISRQTSETADNDNASSFTM
# How the values were obtained:
# Experiment in all cases: FRET or BRET
# [1] = target: leucine-rich repeat containing receptor LGR5 (human) (UniProt O75473)
# FZD10 (human) = FZD10 (human) (UniProt Q9ULW2)
# [2] = target: CrlC (Dictyostelium discoideum) (UniProt Q6UUW6)
# [3] = target: CarB (Dictyostelium discoideum) (UniProt P34907)
# CCR6 (human) = CCR6 (human) (UniProt P51684)
binder,measurement,setting,value
B1,binding,[1],binds
B2,binding,FZD10 (human),binds
B3,binding,[2],no binding
B4,binding,[3],no binding
B5,binding,CCR6 (human),no binding
